For experiment [1], the target named is T1, TwinkleFLAG (mtDNA helicase Twinkle with a FLAG tag at its C-terminus) (UniProt Q96RR1).
T1 sequence: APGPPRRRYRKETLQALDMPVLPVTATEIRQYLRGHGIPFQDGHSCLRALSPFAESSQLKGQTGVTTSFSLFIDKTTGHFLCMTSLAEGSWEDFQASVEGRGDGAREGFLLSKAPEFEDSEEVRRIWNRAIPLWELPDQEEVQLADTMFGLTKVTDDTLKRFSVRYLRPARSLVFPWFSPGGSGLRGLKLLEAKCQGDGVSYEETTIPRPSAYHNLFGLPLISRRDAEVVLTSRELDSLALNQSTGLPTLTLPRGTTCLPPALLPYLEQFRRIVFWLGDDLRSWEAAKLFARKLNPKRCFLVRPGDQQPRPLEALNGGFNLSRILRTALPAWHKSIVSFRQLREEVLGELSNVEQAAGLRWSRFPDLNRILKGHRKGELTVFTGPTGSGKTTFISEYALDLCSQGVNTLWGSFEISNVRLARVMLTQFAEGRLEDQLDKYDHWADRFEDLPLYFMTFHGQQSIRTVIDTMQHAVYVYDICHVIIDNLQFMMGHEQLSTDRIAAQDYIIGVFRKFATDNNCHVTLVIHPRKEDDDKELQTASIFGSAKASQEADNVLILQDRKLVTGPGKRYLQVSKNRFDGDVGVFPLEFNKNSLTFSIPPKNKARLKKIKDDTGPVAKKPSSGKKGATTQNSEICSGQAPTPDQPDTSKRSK
In words: cross-linking + affinity purification with mass spectrometry; whole cell 1% formaldehyde cross-linking; method B (X-ChIP): RIPA lysis, sonication, RNAse A, DNAse I and Benzonase for 30 min at 37°C, FLAG resin, RIPA washes, 3xFLAG peptide elution; Q Exactive; enriched ≥2 fold by LFQ over TwinkleFLAG -XL and mtLucFLAG +XL; mtDNA-containing cells, levels also compared with ρ° cells.

Chains of the proteins cited; added tags and fusions are not shown. Residues count along the entry.
UniProt A3KMH1, residues 29-1905: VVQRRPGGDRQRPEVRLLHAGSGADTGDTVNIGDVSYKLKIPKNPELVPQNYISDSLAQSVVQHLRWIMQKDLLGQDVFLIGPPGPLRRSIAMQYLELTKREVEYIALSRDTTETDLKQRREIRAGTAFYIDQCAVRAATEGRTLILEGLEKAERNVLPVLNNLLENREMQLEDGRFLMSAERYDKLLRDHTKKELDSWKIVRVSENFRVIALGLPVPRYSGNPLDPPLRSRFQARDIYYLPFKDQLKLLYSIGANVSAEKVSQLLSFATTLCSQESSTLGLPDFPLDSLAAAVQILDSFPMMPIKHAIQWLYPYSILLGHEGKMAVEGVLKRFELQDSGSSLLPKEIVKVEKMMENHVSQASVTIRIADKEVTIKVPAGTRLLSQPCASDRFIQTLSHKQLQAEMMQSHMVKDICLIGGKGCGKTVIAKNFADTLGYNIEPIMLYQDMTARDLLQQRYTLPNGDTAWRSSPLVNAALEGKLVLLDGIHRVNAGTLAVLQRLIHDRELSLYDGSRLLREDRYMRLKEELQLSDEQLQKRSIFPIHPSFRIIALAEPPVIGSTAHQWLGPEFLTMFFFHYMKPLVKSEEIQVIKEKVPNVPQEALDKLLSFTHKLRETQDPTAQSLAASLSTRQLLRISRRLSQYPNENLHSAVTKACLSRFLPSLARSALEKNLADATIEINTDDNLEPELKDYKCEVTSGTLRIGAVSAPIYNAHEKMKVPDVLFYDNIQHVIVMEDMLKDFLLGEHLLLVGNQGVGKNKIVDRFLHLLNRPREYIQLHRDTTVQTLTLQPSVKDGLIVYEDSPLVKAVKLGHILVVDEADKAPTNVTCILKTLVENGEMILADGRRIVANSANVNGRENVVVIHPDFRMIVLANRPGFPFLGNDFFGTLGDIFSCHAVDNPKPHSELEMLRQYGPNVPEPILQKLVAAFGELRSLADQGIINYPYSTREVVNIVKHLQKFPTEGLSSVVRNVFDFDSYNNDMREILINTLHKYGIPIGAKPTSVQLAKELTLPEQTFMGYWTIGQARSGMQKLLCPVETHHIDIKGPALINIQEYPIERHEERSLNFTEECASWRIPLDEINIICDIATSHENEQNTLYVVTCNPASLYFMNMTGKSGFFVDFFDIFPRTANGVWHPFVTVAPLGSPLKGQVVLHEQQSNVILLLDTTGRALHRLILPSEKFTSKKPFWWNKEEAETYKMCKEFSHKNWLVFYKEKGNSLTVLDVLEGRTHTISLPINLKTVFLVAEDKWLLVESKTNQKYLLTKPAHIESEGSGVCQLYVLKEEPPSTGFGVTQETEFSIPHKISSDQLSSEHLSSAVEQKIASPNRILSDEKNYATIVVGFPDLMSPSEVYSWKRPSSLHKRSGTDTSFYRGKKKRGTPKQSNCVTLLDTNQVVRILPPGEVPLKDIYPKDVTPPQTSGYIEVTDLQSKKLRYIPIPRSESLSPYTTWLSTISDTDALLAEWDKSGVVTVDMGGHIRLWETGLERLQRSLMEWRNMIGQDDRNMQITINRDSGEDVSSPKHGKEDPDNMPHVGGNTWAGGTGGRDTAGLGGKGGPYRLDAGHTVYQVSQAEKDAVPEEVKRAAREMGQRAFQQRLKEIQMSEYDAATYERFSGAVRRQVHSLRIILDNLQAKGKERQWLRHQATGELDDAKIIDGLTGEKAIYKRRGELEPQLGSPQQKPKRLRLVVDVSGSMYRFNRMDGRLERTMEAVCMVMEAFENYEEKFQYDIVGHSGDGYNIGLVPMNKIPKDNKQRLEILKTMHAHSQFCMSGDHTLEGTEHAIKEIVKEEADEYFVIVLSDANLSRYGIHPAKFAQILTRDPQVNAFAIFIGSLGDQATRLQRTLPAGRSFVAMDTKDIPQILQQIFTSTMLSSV
UniProt O00411, residues 42-1230: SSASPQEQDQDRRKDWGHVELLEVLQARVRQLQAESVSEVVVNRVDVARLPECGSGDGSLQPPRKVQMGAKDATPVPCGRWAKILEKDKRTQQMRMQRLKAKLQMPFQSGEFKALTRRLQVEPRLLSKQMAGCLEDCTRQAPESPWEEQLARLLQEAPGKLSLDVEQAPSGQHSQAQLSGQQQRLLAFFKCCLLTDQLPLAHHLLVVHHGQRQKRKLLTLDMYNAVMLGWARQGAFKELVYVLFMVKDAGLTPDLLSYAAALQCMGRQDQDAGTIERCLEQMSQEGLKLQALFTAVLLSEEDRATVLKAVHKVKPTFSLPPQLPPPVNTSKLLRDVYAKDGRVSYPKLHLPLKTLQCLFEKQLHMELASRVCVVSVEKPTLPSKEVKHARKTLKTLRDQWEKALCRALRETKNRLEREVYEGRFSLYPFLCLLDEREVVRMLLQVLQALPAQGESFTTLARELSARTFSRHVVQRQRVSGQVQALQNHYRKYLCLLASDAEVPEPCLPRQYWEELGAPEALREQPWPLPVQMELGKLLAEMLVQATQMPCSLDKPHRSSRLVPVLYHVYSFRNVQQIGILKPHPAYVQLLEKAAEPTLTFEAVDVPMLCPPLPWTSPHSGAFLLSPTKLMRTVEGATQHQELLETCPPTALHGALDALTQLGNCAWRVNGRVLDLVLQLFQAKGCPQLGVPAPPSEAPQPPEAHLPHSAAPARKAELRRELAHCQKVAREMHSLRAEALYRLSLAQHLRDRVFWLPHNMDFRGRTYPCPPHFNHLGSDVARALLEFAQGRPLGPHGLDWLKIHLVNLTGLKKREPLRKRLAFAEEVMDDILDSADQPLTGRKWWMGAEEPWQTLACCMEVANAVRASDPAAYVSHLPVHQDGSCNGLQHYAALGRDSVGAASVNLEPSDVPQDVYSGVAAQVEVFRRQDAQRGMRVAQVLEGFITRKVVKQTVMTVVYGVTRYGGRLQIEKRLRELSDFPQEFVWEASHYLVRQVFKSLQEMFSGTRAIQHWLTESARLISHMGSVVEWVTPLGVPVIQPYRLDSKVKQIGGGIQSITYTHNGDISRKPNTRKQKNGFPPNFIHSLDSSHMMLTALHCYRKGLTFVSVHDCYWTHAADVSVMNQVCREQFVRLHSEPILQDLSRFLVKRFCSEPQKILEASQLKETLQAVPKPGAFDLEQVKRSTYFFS

Experiment [2] has as its target T1, TwinkleFLAG (mtDNA helicase Twinkle with a FLAG tag at its C-terminus). In words: cross-linking + affinity purification with mass spectrometry; whole cell 1% formaldehyde cross-linking; method A: Triton X-100 lysis (50 mM Tris-HCl pH 7.4, 300 mM NaCl, 2 mM EDTA, 1% Triton X-100), sonication, FLAG resin, washes with 800 mM, 50 mM and 150 mM NaCl, 3xFLAG peptide elution; LTQ-FT (3 biological repeats) and Q Exactive (sample 2 in triplicate); enriched ≥2 fold by LFQ over TwinkleFLAG -XL and mtLucFLAG +XL.

For experiment [3] the target is unchanged. In words: cross-linking + affinity purification with mass spectrometry; whole cell 1% formaldehyde cross-linking; method B (X-ChIP): RIPA lysis, sonication, RNAse A, DNAse I and Benzonase for 30 min at 37°C, FLAG resin, RIPA washes, 3xFLAG peptide elution; Q Exactive; enriched ≥2 fold by LFQ over TwinkleFLAG -XL and mtLucFLAG +XL; mtDNA-containing cells, levels also compared with ρ° cells. The source holds these as a separate data set.

These are yes or no findings as the source states them, for the method shown. Binding seen in cells or lysates may run through a third protein. A yes stands for co-enrichment or nearness to the bait. Other partners may have been found. Where a sequence is shown, tags or fusion partners need not be part of it.

As to “von Willebrand factor A domain-containing protein 8 (VWA8) (from UniProt A3KMH1 29-1905)”, the binding result in experiment [1] is recorded as “binds”.
The same measure, in the same setting: then “small mitoribosomal subunit protein S9 (human (endogenous in HEK293))”, with “binds”.
As to “POLRMT (from UniProt O00411 42-1230) (enzyme)”, the binding result in experiment [1] and in experiment [2] was “binds” each time.

B1: RNMTL1 (enzyme, UniProt Q9HC36 41-420)
chain: VFPSGEVVEQKRAPGKQPRKAPSEASAQEQREKQPLEESASRAPSTWEESGLRYDKAYPGDRRLSSVMTIVKSRPFREKQGKILLEGRRLISDALKAGAVPKMFFFSRLEYLKELPVDKLKGVSLIKVKFEDIKDWSDLVTPQGIMGIFAKPDHVKMTYPKTQLQHSLPLLLICDNLRDPGNLGTILRSAAGAGCSKVLLTKGCVDAWEPKVLRAGMGAHFRMPIINNLEWETVPNYLPPDTRVYVADNCGLYAQAEMSNKASDHGWVCDQRVMKFHKYEEEEDVETGASQDWLPHVEVQSYDSDWTEAPAAVVIGGETYGVSLESLQLAESTGGKRLLIPVVPGVDSLNSAMAASILLFEGKRQLRGRAEDLSRDRSYH
As for B1, in experiment [3], the binding result was “binds”.

B2: MTERFD2 (protein, UniProt Q7Z6M4 43-381)
chain: LTTASNGGVIEELSCVRSNNYVQEPECRRNLVQCLLEKQGTPVVQGSLELERVMSSLLDMGFSNAHINELLSVRRGASLQQLLDIISEFILLGLNPEPVCVVLKKSPQLLKLPIMQMRKRSSYLQKLGLGEGKLKRVLYCCPEIFTMRQQDINDTVRLLKEKCLFTVQQVTKILHSCPSVLREDLGQLEYKFQYAYFRMGIKHPDIVKSEYLQYSLTKIKQRHIYLERLGRYQTPDKKGQTQIPNPLLKDILRVSEAEFLARTACTSVEEFQVFKKLLAREEEESESSTSDDKRASLDEDEDDDDEEDNDEDDNDEDDDDEDDDEAEDNDEDEDDDEEE
Turning to B2, in experiment [3], the binding result is “binds”.

B3: enoyl-coenzyme A (CoA) hydratase with AUUU RNA binding activity (AUH) (enzyme, UniProt Q13825 68-339)
chain: SSEMKTEDELRVRHLEEENRGIVVLGINRAYGKNSLSKNLIKMLSKAVDALKSDKKVRTIIIRSEVPGIFCAGADLKERAKMSSSEVGPFVSKIRAVINDIANLPVPTIAAIDGLALGGGLELALACDIRVAASSAKMGLVETKLAIIPGGGGTQRLPRAIGMSLAKELIFSARVLDGKEAKAVGLISHVLEQNQEGDAAYRKALDLAREFLPQGPVAMRVAKLAINQGMEVDLVTGLAIEEACYAQTIPTKDRLEGLLAFKEKRPPRYKGE
B3: the binding result in experiment [3] is listed as “binds”.

B4: MTERF2 (protein, UniProt Q49AM1 36-385)
chain: TTDKQSSKENTRTVEKLYKCSVDIRKIRRLKGWVLLEDETYVEEIANILQELGADETAVASILERCPEAIVCSPTAVNTQRKLWQLVCKNEEELIKLIEQFPESFFTIKDQENQKLNVQFFQELGLKNVVISRLLTAAPNVFHNPVEKNKQMVRILQESYLDVGGSEANMKVWLLKLLSQNPFILLNSPTAIKETLEFLQEQGFTSFEILQLLSKLKGFLFQLCPRSIQNSISFSKNAFKCTDHDLKQLVLKCPALLYYSVPVLEERMQGLLREGISIAQIRETPMVLELTPQIVQYRIRKLNSSGYRIKDGHLANLNGSKKEFEANFGKIQAKKVRPLFNPVAPLNVEE
As to B4, the binding entry in experiment [3] was “binds”.

B5: TFB2M (protein, UniProt Q9H5Q4 20-396)
chain: AGRFCILGSEAATRKHLPARNHCGLSDSSPQLWPEPDFRNPPRKASKASLDFKRYVTDRRLAETLAQIYLGKPSRPPHLLLECNPGPGILTQALLEAGAKVVALESDKTFIPHLESLGKNLDGKLRVIHCDFFKLDPRSGGVIKPPAMSSRGLFKNLGIEAVPWTADIPLKVVGMFPSRGEKRALWKLAYDLYSCTSIYKFGRIEVNMFIGEKEFQKLMADPGNPDLYHVLSVIWQLACEIKVLHMEPWSSFDIYTRKGPLENPKRRELLDQLQQKLYLIQMIPRQNLFTKNLTPMNYNIFFHLLKHCFGRRSATVIDHLRSLTPLDARDILMQIGKQEDEKVVNMHPQDFKTLFETIERSKDCAYKWLYDETLEDR
For B5, the binding entry in experiment [3] was “binds”.

B6: Topoisomerase 3α (enzyme, UniProt Q13472 1-1001)
chain: MIFPVARYALRWLRRPEDRAFSRAAMEMALRGVRKVLCVAEKNDAAKGIADLLSNGRMRRREGLSKFNKIYEFDYHLYGQNVTMVMTSVSGHLLAHDFQMQFRKWQSCNPLVLFEAEIEKYCPENFVDIKKTLERETRQCQALVIWTDCDREGENIGFEIIHVCKAVKPNLQVLRARFSEITPHAVRTACENLTEPDQRVSDAVDVRQELDLRIGAAFTRFQTLRLQRIFPEVLAEQLISYGSCQFPTLGFVVERFKAIQAFVPEIFHRIKVTHDHKDGIVEFNWKRHRLFNHTACLVLYQLCVEDPMATVVEVRSKPKSKWRPQALDTVELEKLASRKLRINAKETMRIAEKLYTQGYISYPRTETNIFPRDLNLTVLVEQQTPDPRWGAFAQSILERGGPTPRNGNKSDQAHPPIHPTKYTNNLQGDEQRLYEFIVRHFLACCSQDAQGQETTVEIDIAQERFVAHGLMILARNYLDVYPYDHWSDKILPVYEQGSHFQPSTVEMVDGETSPPKLLTEADLIALMEKHGIGTDATHAEHIETIKARMYVGLTPDKRFLPGHLGMGLVEGYDSMGYEMSKPDLRAELEADLKLICDGKKDKFVVLRQQVQKYKQVFIEAVAKAKKLDEALAQYFGNGTELAQQEDIYPAMPEPIRKCPQCNKDMVLKTKKNGGFYLSCMGFPECRSAVWLPDSVLEASRDSSVCPVCQPHPVYRLKLKFKRGSLPPTMPLEFVCCIGGCDDTLREILDLRFSGGPPRASQPSGRLQANQSLNRMDNSQHPQPADSRQTGSSKALAQTLPPPTAAGESNSVTCNCGQEAVLLTVRKEGPNRGRQFFKCNGGSCNFFLWADSPNPGAGGPPALAYRPLGASLGCPPGPGIHLGGFGNPGDGSGSGTSCLCSQPSVTRTVQKDGPNKGRQFHTCAKPREQQCGFFQWVDENTAPGTSGAPSWTGDRGRTLESEARSKRPRASSSDMGSTAKKPRKCSLCHQPGHTRPFCPQNR
In the case of B6, the binding result in experiment [3] was “binds”.

B7: mitochondrial transcription factor A (TFAM) (protein, UniProt Q00059 43-246)
chain: SSVLASCPKKPVSSYLRFSKEQLPIFKAQNPDAKTTELIRRIAQRWRELPDSKKKIYQDAYRAEWQVYKEEISRFKEQLTPSQIMSLEKEIMDKHLKRKAMTKKKELTLLGKPKRPRSAYNVYVAERFQEAKGDSPQEKLKTVKENWKNLSDSEKELYIQHAKEDETRYHNEMKSWEEQMIEVGRKDLLRRTIKKQRKYGAEEC
For the molecule B7, the binding result in experiment [2] is listed as “binds”.

B8: Mitochondrial single stranded DNA binding protein (mtSSB) (protein, UniProt Q04837 17-148)
chain: ESETTTSLVLERSLNRVHLLGRVGQDPVLRQVEGKNPVTIFSLATNEMWRSGDSEVYQLGDVSQKTTWHRISVFRPGLRDVAYQYVKKGSRIYLEGKIDYGEYMDKNNVRRQATTIIADNIIFLSDQTKEKE
As for B8, the binding result in experiment [2] was “binds”.

For the origin of these results see PMC4335056.
